Laboratory results: PubChem BioAssay AID504804 (Drosophila RNAi Screening Center, 2011)
In all, the deposit lists about 19,000 reagents; this is an unselected part of those that have a named target and a result. Of all reagents, 47 (0.25%) were called active. 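Signals are raw, not normalised; exact z-scores behind calls not deposited; actives needed confirmation, so some wells reaching 2 SD are inactive.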 A number with no mark means an inactive call. Names joined by + are all predicted targets of the reagent.

Aim: 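dsRNAs that improve Kc cell survival under doxorubicin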 (primary screen)
Cell system: Drosophila Kc cells
Knock-down reagent: long dsRNA against Drosophila genes, 0.5 µg dsRNA per well
Duration: 96 h (48 h knock-down, then 48 h drug)
Treatment: doxorubicin 5 µg/ml for 48 h, added 48 h after dsRNA
Read-out: 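Luminescent ATP counts per replicate, not normalised, reflecting viable cells after 48 h dsRNA knock-down followed by 48 h of 5 µg/ml doxorubicin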
Direction: raw ATP luminescence: higher = more viable cells, protection from doxorubicin
Active means: 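Active when both duplicate wells lie at least 2 SD above the plate mean and protection is confirmed by rescreening and independent dsRNAs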

target gene	dsRNA	raw ATP luminescence, replicate 1	raw ATP luminescence, replicate 2
l(2)gd1 (lethal (2) giant discs 1)	DRSC02773	95453	82320
Taf12L (TBP-associated factor 30kD subunit alpha-2)	DRSC00467	22063	24657
CG33514	DRSC08471	63093	84573
CG33514	DRSC08472	63150	85447
CG2120	DRSC18207	40760	49190
CG15435	DRSC00450	18683	20677
CG4820	DRSC15654	56913	50083
CG11123	DRSC06040	49897	92410
Dnaaf6 (Dynein axonemal assembly factor 6)	DRSC10473	49070	41790
CR11386 + CR33222	DRSC17781	36140	31390
CG16781	DRSC18117	56360	44740
CG42540	DRSC08327	24093	13573
CG42540	DRSC08328	67370	71507
CG42540	DRSC08593	55910	48333
CG11693	DRSC14353	34633	28890
CkIIbeta (Casein kinase II beta subunit)	DRSC20230	3.65e5	3.71e5
CG32488	DRSC08549	2.47e5	2.63e5
CG14805	DRSC18554	70900	59080
Sirt4 (Sirtuin 4)	DRSC18290	47350	58840
CG10814	DRSC06004	87220	68770
CG6142	DRSC15976	59750	57630
CG17734	DRSC15256	53827	40627
CG30286	DRSC04070	66580	65037
CG14454	DRSC11711	50590	46127
CG8306	DRSC07141	46387	54637
CG34236	DRSC05435	79970	84100
mgr (merry-go-round)	DRSC16099	63103	56770
Ppcs (Phosphopantothenoylcysteine synthetase)	DRSC14127	43557	62540
CG11211	DRSC04851	36410	49757
GluRIIC (Glutamate receptor IIC)	DRSC00642	1.08e5	85040
CG33775	DRSC05353	85080	87240
CG8539	DRSC10988	37157	34690
CG34029	DRSC03909	77010	74823
porin	DRSC03594	71443	67810
Lcp1Psi (Larval cuticle protein 1 pseudogene)	DRSC05105	89720	90583
Pnn (Pinin)	DRSC16415	53333	49613
Mbs (Myosin binding subunit)	DRSC09414	89287	84770
Mbs (Myosin binding subunit)	DRSC10525	20853	15123
Mbs (Myosin binding subunit)	DRSC10553	35463	42973
Art7 (Arginine methyltransferase 7)	DRSC04588	36913	49433
Acsf3 (Acyl-CoA synthetase family member 3)	DRSC18146	70470	61380
CG33557	DRSC17854	3.76e5	3.38e5
CG34054	DRSC05277	64767	84797
CG30060	DRSC05419	79373	89427
pwn (pawn)	DRSC06035	57963	75570
CCKLR-17D1 (Cholecystokinin-like receptor at 17D1)	DRSC20010	2.89e5	2.66e5
CCKLR-17D1 (Cholecystokinin-like receptor at 17D1)	DRSC20011	2.34e5	2.26e5
CCKLR-17D1 (Cholecystokinin-like receptor at 17D1)	DRSC20012	2.01e5	2.51e5
mGluR (metabotropic Glutamate Receptor)	DRSC17215	50080	56510
St3 (Sulfotransferase 3)	DRSC04505	78750	64333
CG6867	DRSC20013	3.48e5	3.78e5
CG15330	DRSC18014	30330	35030
Invadolysin	DRSC15527	59123	59670
Srp14 (Signal recognition particle 14)	DRSC15797	58330	66890
TBPH (TAR DNA-binding protein-43 homolog)	DRSC04660	84390	61247
CG17999	DRSC04300	75467	63630
CG10761	DRSC17753	29030	45570
CG13398	DRSC02268	39930	79333
Vps20 (Vacuolar protein sorting 20)	DRSC04448	44913	46923
Sox21b	DRSC10025	25573	21833
Sox21b	DRSC10634	26020	28137
Ugt307A1 (UDP-glycosyltransferase family 307 member A1)	DRSC02138	23073	27777
mib1 (mind bomb 1)	DRSC10550	74483	62480
ro (rough)	DRSC17046	46770	49940
CG10654	DRSC09767	69817	61367
PolE2 (DNA polymerase epsilon subunit 2)	DRSC09737	65407	33957
CG32548	DRSC19627	3.96e5	3.23e5
Rpp30 (RNaseP protein p30)	DRSC00320	1.03e5	61447
CG4751	DRSC02776	1.43e5	84103
CG6675	DRSC03735	43833	49287
Hr39 (Hormone receptor-like in 39)	DRSC03346	69873	69123
CG17026	DRSC10237	86600	73557
CG13022	DRSC09902	74710	61417
PIP5K59B (Phosphatidylinositol 4-phosphate 5-kinase 59B)	DRSC04290	69747	61140
PIP5K59B (Phosphatidylinositol 4-phosphate 5-kinase 59B)	DRSC04403	44577	41257
upSET	DRSC11051	12873	11097
Obp59a (Odorant-binding protein 59a)	DRSC04160	51190	49453
CG5781	DRSC02893	67557	76560
GNBP1 (Gram-negative bacteria binding protein 1)	DRSC11169	45817	49170
BaraA1 + BaraA2	DRSC05417	94180	1.02e5
Tmem214 (Transmembrane protein 214)	DRSC02924	38667	56177
Tmem214 (Transmembrane protein 214)	DRSC02925	43780	57607
sad (shadow)	DRSC16630	57437	52057
CG32833	DRSC04596	73517	62947

In a second layout: entries from further up.
CG17999 [DRSC04300]
- raw ATP luminescence, replicate 1: 75467
- raw ATP luminescence, replicate 2: 63630

CG10761 [DRSC17753]
- raw ATP luminescence, replicate 1: 29030
- raw ATP luminescence, replicate 2: 45570

CG13398 [DRSC02268]
- raw ATP luminescence, replicate 1: 39930
- raw ATP luminescence, replicate 2: 79333

Vps20 (Vacuolar protein sorting 20) [DRSC04448]
- raw ATP luminescence, replicate 1: 44913
- raw ATP luminescence, replicate 2: 46923

Sox21b [DRSC10025]
- raw ATP luminescence, replicate 1: 25573
- raw ATP luminescence, replicate 2: 21833
